Results from PubChem BioAssay AID190 (DTP/NCI, 2004).
The list is a part of this screen's results and no random one: it is rich in T/C values a quarter to a half above the control, in often repeated tests (any T/C) and in doses without a T/C. Other doses and runs of a compound stand elsewhere. T/C: endpoint of the treated group in % of that of the vehicle group. Some doses have a count of surviving animals in place of a T/C: the source files T/C as zero there, which appears to mark a toxic dose or a test without result, not a measured value. Some survivor counts are full or nearly so, which does not show that the dose was tolerated: survival well below the control is almost never listed, so the zero probably covers shortened survival too. Survivors were counted at the toxicity check, usually on the fifth day, unless a day is given; later deaths do not show. Schedules are NCI's codes, read here as Q, the interval in days (D) or hours (H), X, the number of doses. Some entries hold several experiments; the values are given in rising order. Where survival is the endpoint, the PubChem record calls one and a half times the control and up active, and a quarter to a half above the control has no call in these data; cut-offs in other NCI protocols can differ. Some T/C values carry the count of animals alive at the toxicity check (mostly the fifth day); where none is given, no animal had died by that day. Marks such as (2×) give the number of equal values in this list.

Test system: AKR/Lw mice, AKR lymphoma ip, median survival T/C
Assay: NCI In Vivo Anticancer Drug Screen. Data for tumor model Lymphoma AKR (Transplanted) (intraperitoneal) in AKR/Lw mice
Conditions: T/C endpoint: median survival time, higher T/C = longer survival
Description: The antitumor activity of compounds was measured in mice bearing transplantable tumors. Survival or tumor size were measured and the results are expressed as the measurement made in the treated group (T) divided by the measurement made in the vehicle treated control group (C). The tumor model used in this assay is Lymphoma AKR (Transplanted) (intraperitoneal) in AKR/Lw mice

[1] = dose: 25.0 mg/kg/injection, schedule: Q01DX001 (ip), vehicle: saline
[2] = dose: 50.0 mg/kg/injection, schedule: Q01DX001 (ip), vehicle: saline
[3] = dose: 100.0 mg/kg/injection, schedule: Q01DX001 (ip), vehicle: saline
[4] = dose: 200.0 mg/kg/injection, schedule: Q01DX001 (ip), vehicle: saline
[5] = dose: 400.0 mg/kg/injection, schedule: Q01DX001 (ip), vehicle: saline

`O=NN(CCCl)C(=O)NC1CC2CCC1C2` (stereo not given) was tested, and the T/C (dose: 1.2 mg/kg/injection, schedule: Q04DX004 (ip), vehicle: Klucel (hydroxypropylcellulose) (HPC)) was 135 % of control [9 of 10 alive], the T/C (dose: 2.0 mg/kg/injection, schedule: Q04DX008 (ip), vehicle: Klucel (hydroxypropylcellulose) (HPC)) was 130 % of control and the T/C (dose: 2.5 mg/kg/injection, schedule: Q04DX004 (ip), vehicle: Klucel (hydroxypropylcellulose) (HPC)) was 135 % of control. The T/C (dose: 3.5 mg/kg/injection, schedule: Q04DX008 (ip), vehicle: Klucel (hydroxypropylcellulose) (HPC)) was 138 % of control, the T/C (dose: 5.0 mg/kg/injection, schedule: Q04DX004 (ip), vehicle: Klucel (hydroxypropylcellulose) (HPC)) was 128 % of control and the T/C (dose: 5.0 mg/kg/injection, schedule: Q04DX004 (ip), vehicle: saline) was 146 % of control. The T/C (dose: 5.0 mg/kg/injection, schedule: Q04DX008 (ip), vehicle: Klucel (hydroxypropylcellulose) (HPC)) was 141 % of control, the T/C (dose: 10.0 mg/kg/injection, schedule: Q04DX004 (ip), vehicle: Klucel (hydroxypropylcellulose) (HPC)) was 137 % of control and the T/C (dose: 10.0 mg/kg/injection, schedule: Q04DX004 (ip), vehicle: saline) was 130 % of control. For the same molecule, the T/C (dose: 10.0 mg/kg/injection, schedule: Q04DX008 (ip), vehicle: Klucel (hydroxypropylcellulose) (HPC)) was 126 % of control, the T/C (dose: 20.0 mg/kg/injection, schedule: Q04DX004 (ip), vehicle: saline) was 128 % of control and the T/C (dose: 20.0 mg/kg/injection, schedule: Q04DX008 (ip), vehicle: Klucel (hydroxypropylcellulose) (HPC)) was 126 % of control. The survivor count (dose: 40.0 mg/kg/injection, schedule: Q04DX004 (ip), vehicle: Klucel (hydroxypropylcellulose) (HPC)) was 10 of 10, the survivor count (dose: 40.0 mg/kg/injection, schedule: Q04DX004 (ip), vehicle: saline) was 10 of 10 and the survivor count (dose: 40.0 mg/kg/injection, schedule: Q04DX008 (ip), vehicle: Klucel (hydroxypropylcellulose) (HPC)) was 9 of 10. The survivor count (dose: 80.0 mg/kg/injection, schedule: Q04DX004 (ip), vehicle: saline) was 10 of 10.
With `O=[N+]([O-])O.[Ga]` the survivor count (dose: 2.0 mg/kg/injection, schedule: Q01DX009 (ip), vehicle: saline) was 10 of 10, the survivor count (dose: 2.5 mg/kg/injection, schedule: Q01DX001 (ip), vehicle: saline) was 10 of 10 and the survivor count (dose: 4.0 mg/kg/injection, schedule: Q01DX009 (ip), vehicle: saline) was 9 of 10. For the same molecule, the survivor count (dose: 5.0 mg/kg/injection, schedule: Q01DX001 (ip), vehicle: saline) was 10 of 10, the survivor count (dose: 12.5 mg/kg/injection, schedule: Q01DX001 (ip), vehicle: saline) was 10 of 10 and the survivor count (dose: 15.0 mg/kg/injection, schedule: Q01DX009 (ip), vehicle: saline) was 10 of 10. The T/C [1] was 90, 92, 94, 105 % of control, the survivor count [1] was 10 of 10 and the survivor count (dose: 25.0 mg/kg/injection, schedule: Q04DX003 (ip), vehicle: saline) was 10 of 10. For the same molecule, the survivor count (dose: 30.0 mg/kg/injection, schedule: Q01DX009 (ip), vehicle: saline) was 10 of 10, the survivor count (dose: 40.0 mg/kg/injection, schedule: Q01DX009 (ip), vehicle: saline) was 10 of 10 and the T/C [2] was 94, 97, 115 % of control. For the same molecule, the survivor count [2] was 10 of 10, the survivor count (dose: 50.0 mg/kg/injection, schedule: Q04DX003 (ip), vehicle: saline) was 10 of 10 and the T/C [3] was 90, 91 [9 of 10 alive], 109, 118 % of control. For the same molecule, the survivor count [3] was 9 of 10 and 10 of 10, the survivor count (dose: 100.0 mg/kg/injection, schedule: Q01DX009 (ip), vehicle: saline) was 5 of 10 and the survivor count (dose: 100.0 mg/kg/injection, schedule: Q04DX003 (ip), vehicle: saline) was 9 of 10 and 10 of 10. The T/C (dose: 128.0 mg/kg/injection, schedule: Q04DX003 (ip), vehicle: water) was 125 % of control, the T/C [4] was 95 (2×) and 110 % of control [9 of 10 alive] and the survivor count [4] was 9 of 10 and 10 of 10. For the same molecule, the survivor count (dose: 200.0 mg/kg/injection, schedule: Q01DX009 (ip), vehicle: saline) was 1 of 10, the survivor count (dose: 200.0 mg/kg/injection, schedule: Q04DX003 (ip), vehicle: saline) was 10 of 10 and the survivor count (dose: 256.0 mg/kg/injection, schedule: Q04DX003 (ip), vehicle: water) was 10 of 10. For the same molecule, the T/C [5] was 87 [7 of 10 alive], 90 [9 of 10 alive], 100 [9 of 10 alive], 113 % of control, the survivor count [5] was 7 of 10 and 9 of 10 and the survivor count (dose: 400.0 mg/kg/injection, schedule: Q04DX003 (ip), vehicle: saline) was 5 of 10. For the same molecule, the survivor count (dose: 600.0 mg/kg/injection, schedule: Q01DX001 (ip), vehicle: saline) was 2 of 10 and 6 of 10.
In the case of `COc1cc2c(cc1OC)[C@H]1CNC[C@H]1[C@@H](c1ccccc1)C2`, the survivor count (dose: 300.0 mg/kg/injection, schedule: Q04DX003 (ip), vehicle: saline) is reported as 6 of 10.
